{"source": "patent US20160046678A1", "about": "(ZYNGENIA, published 2016)", "note": "These are yes or no findings as the source states them, for the method shown. Some entries that bind do so weakly or less than the wild type."}
{"biological_target": "T1, Angiopoietin-2 (Ang2) (human, UniProt O15123 19-496, biotin label in Examples 22-24)", "T1 construct": "also called rhAng2; recombinant Ang2", "T1 sequence (looked up)": "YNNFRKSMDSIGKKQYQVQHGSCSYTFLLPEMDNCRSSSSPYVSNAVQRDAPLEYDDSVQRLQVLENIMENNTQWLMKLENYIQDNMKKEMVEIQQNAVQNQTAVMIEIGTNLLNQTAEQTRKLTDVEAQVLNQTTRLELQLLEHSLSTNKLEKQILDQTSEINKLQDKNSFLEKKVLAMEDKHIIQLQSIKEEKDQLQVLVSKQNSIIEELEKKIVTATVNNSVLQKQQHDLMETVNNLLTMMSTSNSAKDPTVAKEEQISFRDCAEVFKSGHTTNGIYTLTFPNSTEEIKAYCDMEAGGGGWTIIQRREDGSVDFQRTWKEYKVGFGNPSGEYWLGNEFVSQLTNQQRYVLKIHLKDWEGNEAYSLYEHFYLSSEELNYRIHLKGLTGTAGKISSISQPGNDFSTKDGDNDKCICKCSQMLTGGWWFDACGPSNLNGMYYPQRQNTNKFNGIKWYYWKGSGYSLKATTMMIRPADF", "test": "Example 48, method not detailed"}
{"binder": "GFHRCSTFPNPHYCYKTH", "note": "[ANG375]", "binding": "binds"}
{"binder": "RWSYCEETMIGYPYCFTRP", "note": "[ANG376]", "binding": "binds"}
{"binder": "AAFMLSCHSTDGQSWACMESH", "note": "[ANG377]", "binding": "binds"}
{"binder": "RSFECRWQPEHPICAKGV", "note": "[ANG378]", "binding": "binds"}
{"binder": "ILLRCAWYPAPPWCNIET", "note": "[ANG380]", "binding": "binds"}
{"binder": "PHVICHYWKHPWCFQNS", "note": "[ANG381]", "binding": "binds"}
{"binder": "VFYRCMKWPNPWWCYSQP", "note": "[ANG382]", "binding": "binds"}
{"binder": "GFQRCKTFPNPHYCYKTH", "note": "[ANG383]", "binding": "binds"}
{"binder": "DWSKCPKYPNPEWCYHPS", "note": "[ANG384]", "binding": "binds"}
{"binder": "TYTKCMTYPNPQYCFKHN", "note": "[ANG385]", "binding": "binds"}
{"binder": "SMWGCHMQPNYRECSLWI", "note": "[ANG387]", "binding": "binds"}
{"binder": "PHVICHYCPHPWCFLNS", "note": "[ANG388]", "binding": "binds"}
{"binder": "LELPCGKYPNMWFCYKVA", "note": "[ANG389]", "binding": "binds"}
{"binder": "KERPCVWWKQPWCFQAS", "note": "[ANG390]", "binding": "binds"}
{"binder": "QWFRCYEFPEPDWCRVRS", "note": "[ANG391]", "binding": "binds"}
{"binder": "EWAFCYSYPNPDYCHEAV", "note": "[ANG393]", "binding": "binds"}
{"binder": "TYRKCMTYPNPHYCFKHS", "note": "[ANG394]", "binding": "binds"}
{"binder": "RYSLCMTYPNPYQCYKSN", "note": "[ANG395]", "binding": "binds"}
{"binder": "PHVICHYWKHPWCFHNS", "note": "[ANG396]", "binding": "binds"}
{"binder": "PWFSCYYFPNPSHCMDVV", "note": "[ANG397]", "binding": "binds"}
{"binder": "LYDRCVCFPNLFWCEMTT", "note": "[ANG398]", "binding": "binds"}
{"binder": "RSLACEFHPQKYHVQCALPH", "note": "[ANG399]", "binding": "binds"}
{"binder": "NTLRCYSGVLVDAMVCFTSG", "note": "[ANG400]", "binding": "binds"}
{"binder": "QYDPCEYDIPCVKWG", "note": "[ANG403]", "binding": "binds"}
{"binder": "SWAQCYAYPNPDFCNRSG", "note": "[ANG404]", "binding": "binds"}
{"binder": "PYEKCMTYPNPWYCFLTD", "note": "[ANG405]", "binding": "binds"}
{"binder": "PYERCTKHPNPTYCWKNL", "note": "[ANG406]", "binding": "binds"}
{"binder": "MYAMCQWHPSPEQCRSPS", "note": "[ANG407]", "binding": "binds"}
{"binder": "TYLQIIECYFYPNPPHCY", "note": "[ANG637]", "binding": "binds"}
{"binder": "LTPSGSDCYFYPNPLHCY", "note": "[ANG638]", "binding": "binds"}
{"binder": "GAYDCYFYPNPPHCYGTT", "note": "[ANG639]", "binding": "binds"}
{"binder": "YLNHNYECYFFPNPTHCY", "note": "[ANG640]", "binding": "binds"}
{"binder": "GFLTFYDCYFFPNPPHCF", "note": "[ANG641]", "binding": "binds"}
{"binder": "TFIDCYFYPNPPHCYALW", "note": "[ANG642]", "binding": "binds"}
{"binder": "ASDILLDCYFFPNPPHCR", "note": "[ANG643]", "binding": "binds"}
{"binder": "LPLSWSDCYFYPNPPHCY", "note": "[ANG644]", "binding": "binds"}
{"binder": "ALLDCYFYPNPAHCYITM", "note": "[ANG645]", "binding": "binds"}
{"binder": "GMLDCYFYPNPPHCYLDR", "note": "[ANG646]", "binding": "binds"}
{"binder": "SGTECYFYPNPPHCYSSD", "note": "[ANG647]", "binding": "binds"}
{"binder": "SLEDCFFYPNPTLCYNNG", "note": "[ANG648]", "binding": "binds"}
{"binder": "AFSRFLDCYFYPNPQHCY", "note": "[ANG649]", "binding": "binds"}
{"binder": "GVYSFLECSFFPNPPYCY", "note": "[ANG650]", "binding": "binds"}
{"binder": "EEGSSSDCYFYPNPRHCY", "note": "[ANG651]", "binding": "binds"}
{"binder": "LTLLLDDCYFYPNPPHCY", "note": "[ANG652]", "binding": "binds"}
{"binder": "LFHSMTDCYFYPNPRHCY", "note": "[ANG653]", "binding": "binds"}
{"binder": "REQDCFFYPNPPHCYVDN", "note": "[ANG654]", "binding": "binds"}
{"binder": "ASLGLYDCYYFPNPPNCY", "note": "[ANG655]", "binding": "binds"}
{"binder": "RTGTLGDCYFYPNPRHCY", "note": "[ANG657]", "binding": "binds"}
{"binder": "SPLDCYFYPNPPHCYYAH", "note": "[ANG658]", "binding": "binds"}
{"binder": "IEGDCYFYPNPPHCYEQN", "note": "[ANG659]", "binding": "binds"}
{"binder": "FNYSMYDCYFYPNPAHCY", "note": "[ANG660]", "binding": "binds"}
{"binder": "LVLPLFDCYFYPNPPHCY", "note": "[ANG661]", "binding": "binds"}
{"binder": "FHFVLYDCYFYPNPPYCF", "note": "[ANG662]", "binding": "binds"}
{"binder": "HRADCYFFPNPMDCYQWR", "note": "[ANG663]", "binding": "binds"}
{"binder": "STNLALDCYFYPNPPHCY", "note": "[ANG664]", "binding": "binds"}
{"binder": "SPNDCYFYPNPPECYTHR", "note": "[ANG665]", "binding": "binds"}
{"binder": "IVITSLACYFYPNPLHCY", "note": "[ANG666]", "binding": "binds"}
{"binder": "GGVPMTDCYFYPNPRHCY", "note": "[ANG667]", "binding": "binds"}
{"binder": "DFRDCYSFPNPTQCYINT", "note": "[ANG668]", "binding": "binds"}
{"binder": "WPTDCFFFPNPPHCYHDG", "note": "[ANG670]", "binding": "binds"}
{"binder": "HILDCYFYPNPPHCYLVT", "note": "[ANG671]", "binding": "binds"}
{"binder": "DEADCYYYPNPPHCYSGH", "note": "[ANG672]", "binding": "binds"}
{"binder": "TLVSMMDCYYYPNPPHCY", "note": "[ANG673]", "binding": "binds"}
{"binder": "QSVRYMDCYFYPNPSHCY", "note": "[ANG674]", "binding": "binds"}
